From the supplement of paper PMC7646827
Counter-ions that a name gives are not always drawn. Single values are uncertain, as repeats are few or missing.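 All cells are established human bladder cancer lines, one of them grown from a patient-derived xenograft. Viability was read by a luminescent ATP assay as percent inhibition versus vehicle over a seven-point dilution series; the paper calls scores above 59 very active, 30–59 active, 21–29 semi-active, 9–20 low active and below 9 inactive.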

Legend:
Assay in all cases: drug sensitivity score DSS3 (score 0-100); higher = more sensitive; extreme values may be limits of the assay
Conditions in all cases: culture: 3D, ultra-low attachment; treatment time: 5 days
[1] = tested on: UM-UC-3
[2] = tested on: SCaBER
[3] = tested on: UM-UC-18
[4] = tested on: UM-UC-9
[5] = tested on: UM-UC-15
[6] = tested on: 5637
[7] = tested on: UM-UC-5
[8] = tested on: UM-UC-14
[9] = tested on: UM-UC-12
[10] = tested on: BC8149
[11] = tested on: UM-UC-1
[12] = tested on: TCCSUP
[13] = tested on: SW780
[14] = tested on: UM-UC-17
[15] = tested on: T-24
[16] = tested on: J82
[17] = tested on: UM-UC-6

Compound | drug sensitivity score DSS3 [1] | drug sensitivity score DSS3 [2] | drug sensitivity score DSS3 [3] | drug sensitivity score DSS3 [4] | drug sensitivity score DSS3 [5] | drug sensitivity score DSS3 [6] | drug sensitivity score DSS3 [7] | drug sensitivity score DSS3 [8] | drug sensitivity score DSS3 [9] | drug sensitivity score DSS3 [10] | drug sensitivity score DSS3 [11] | drug sensitivity score DSS3 [12] | drug sensitivity score DSS3 [13] | drug sensitivity score DSS3 [14] | drug sensitivity score DSS3 [15] | drug sensitivity score DSS3 [16] | drug sensitivity score DSS3 [17]
Nc1ccccc1NC(=O)c1ccc(CNC(=O)OCc2cccnc2)cc1 [Entinostat, Entinostat (MS-275)] (max dose 10000 nM) | 3.59 | 0 | 8.5 | 5.53 | 3.19 | 8.45 | 0 | 4.61 | 3.05 | 18.4 | 1.61 | 16.7 | 0.423 | 8.82 | 3.93 | 7.36 | 0
OCCn1cc(-c2ccc3c(c2)CC/C3=N\O)c(-c2ccncc2)n1 [GDC-0879] (max dose 10000 nM) | 0 | 0 | 0 | 0 | 0 | 0 | 0 | 1.57 | 0 | 0 | 0 | 0.6 | 0 | 0 | 0 | 0 | 0.0312
COc1c(C)c2c(c(O)c1C/C=C(\C)CCC(=O)O)C(=O)OC2 [Mycophenolic acid] (max dose 10000 nM) | 0.58 | 0 | 2.69 | 1.41 | 0 | 2.25 | 0 | 0.00402 | 0 | 0.479 | 1.59 | 1.16 | 0 | 0 | 0 | 0 | 0
CCCCCCOC(=O)c1cc(=O)c(O)c2c(O)c(O)c(OC)cc2c1 [Cu-CPT22] (max dose 10000 nM) | 0 | 0 | 0 | 0.0886 | 0 | 0 | 0 | 0 | 0.911 | 0.0355 | 0 | 0 | 0 | 0 | 0 | 0 | 0.0285
O=C(O)[C@]1(Cc2cccc(Nc3nccs3)n2)CC[C@@H](Oc2cccc(Cl)c2F)CC1 [MK-5108 (VX-689)] (max dose 10000 nM) | 0.065 | 0 | 3.57 | 0.0405 | 0 | 2.96 | 0 | 0.954 | 0 | 0.294 | 3.92 | 5.93 | 0 | 2.32 | 0 | 0 | 4.18
Cc1ccc(S(=O)(=O)/C=C/C#N)cc1 [BAY 11-7082] (max dose 10000 nM) | 1.18 | 1.56 | 0.93 | 1.12 | 0 | 8.88 | 0.241 | 0 | 0.517 | 3.73 | 0.871 | 1.15 | 0 | 0 | 0.154 | 0 | 0.107
COc1ncc(-c2cc(-c3ncc(CN4C[C@@H](C)O[C@@H](C)C4)o3)c3cn[nH]c3c2)cc1NS(C)(=O)=O (max dose 10000 nM) | 10.2 | 2 | 5.02 | 0 | 0 | 3.67 | 0.111 | 8.5 | 0 | 5.2 | 12.8 | 13.6 | 0 | 0.506 | 0 | 0 | 0.159
N#CCNC(=O)c1ccc(-c2ccnc(Nc3ccc(N4CCOCC4)cc3)n2)cc1 [CYT387] (max dose 10000 nM) | 1.16 | 0 | 0 | 0 | 0 | 0.0444 | 0.161 | 0.449 | 0 | 0 | 0 | 1.24 | 0 | 0 | 0 | 0 | 0
N#Cc1c(NC(=O)c2cccc3ccccc23)sc2c1CCCC2 [JNK Inhibitor IX] (max dose 10000 nM) | 10.2 | 0.267 | 0.0484 | 0 | 0.519 | 17.6 | 2.01 | 13.8 | 14.6 | 12.6 | 0.485 | 20.1 | 1.38 | 22.5 | 3.24 | 0 | 6.6
C=CCn1c(=O)c2cnc(Nc3ccc(N4CCN(C)CC4)cc3)nc2n1-c1cccc(C(C)(C)O)n1 [AZD1775, MK-1775] (max dose 10000 nM) | 1.64 | 4.44 | 13.6 | 8.35 | 2.65 | 23.7 | 1.04 | 6.27 | 4.67 | 22 | 12.2 | 33.3 | 1.31 | 9.32 | 0 | 1.53 | 23
N#Cc1ccc2[nH]c(O)c(-c3ccc(CN4CCOCC4)cn3)c2c1 [AZD1080] (max dose 10000 nM) | 0 | 0 | 0 | 0 | 0 | 1.43 | 0 | 0 | 0 | 0 | 0 | 0 | 0 | 0 | 0 | 0 | 0
Cc1cn(-c2cc(NC(=O)c3ccc(C)c(Nc4nccc(-c5cccnc5)n4)c3)cc(C(F)(F)F)c2)cn1 [Nilotinib (AMN-107)] (max dose 10000 nM) | 8.31 | 0.978 | 3.38 | 0.0162 | 0 | 3.47 | 0 | 0 | 7.13 | 9.84 | 2.17 | 7.53 | 0 | 0 | 1.98 | 0.322 | 0
Cc1cccc(-c2nn3c(c2-c2ccnc4ccc(C(N)=O)cc24)CCC3)n1 (max dose 10000 nM) | 0 | 0 | 0 | 0 | 0 | 0 | 0 | 0 | 0 | 0 | 0 | 0 | 0 | 0 | 0 | 0 | 0
COc1c(OCCCN2CCOCC2)ccc2c1N=C(NC(=O)c1cnc(N)nc1)N1CCN=C21 [Copanlisib] (max dose 2000 nM) | 8.27 | 0 | 3.23 | 0 | 0 | 0 | 40.4 | 21 | 32.3 | 0 | 19.6 | 0.0364 | 0 | 0 | 5.58 | 0.206 | 14.7
CC[C@@]1(O)C(=O)OCc2c1cc1n(c2=O)Cc2cc3c(CN(C)C)c(O)ccc3nc2-1 [Topotecan HCl] (max dose 10000 nM) | 23.8 | 5.23 | 24.5 | 7.66 | 1.94 | 39.4 | 15.4 | 13.4 | 17.4 | 37.7 | 26.5 | 38.6 | 3.61 | 4.47 | 3.27 | 10.3 | 15.6
CCN1CCN(Cc2ccc(Nc3ncc(F)c(-c4cc(F)c5nc(C)n(C(C)C)c5c4)n3)nc2)CC1 [Abemaciclib Mesylate] (max dose 10000 nM) | 23.4 | 17.6 | 7.06 | 1.41 | 3.97 | 16.9 | 0 | 5.34 | 25.7 | 40.2 | 3.76 | 15.3 | 3.96 | 3.82 | 17.8 | 5.15 | 0
O=C(NC1CCNCC1)c1n[nH]cc1NC(=O)c1c(Cl)cccc1Cl [AT7519] (max dose 10000 nM) | 6.38 | 11.3 | 10.7 | 9.32 | 8.24 | 18.1 | 10.2 | 6.45 | 2.06 | 14.6 | 12.2 | 16.5 | 7.55 | 8.69 | 2.2 | 0.955 | 12.7
CC(C)(NS(=O)(=O)c1ccc2c(Cl)cnc(N=C(N)N)c2c1)C(=O)O (max dose 10000 nM) | 0 | 0 | 0 | 0 | 0 | 0 | 0 | 0 | 0 | 0 | 0 | 0 | 0 | 0 | 0 | 0 | 0
Cc1nc(-c2ccc(OCC(C)C)c(C#N)c2)sc1C(=O)O [Febuxostat] (max dose 10000 nM) | 0.162 | 0 | 0.199 | 0 | 0 | 0.648 | 0 | 0 | 0 | 0 | 0.457 | 1.96 | 0 | 0 | 0 | 0 | 0
CCCC(CCC)C(=O)O [Valproic acid sodium salt (Sodium valproate)] (max dose 10000 nM) | 0.226 | 10.3 | 4.18 | 0 | 2.2 | 15.1 | 0 | 3.15 | 3.91 | 14.4 | 2.26 | 14.1 | 0 | 1.03 | 3.48 | 1.19 | 0
Cc1cccc(CC(=O)N2CCc3c2ccc(-c2cn(C)c4ncnc(N)c24)c3F)n1 (max dose 10000 nM) | 0 | 0 | 0 | 0.268 | 0 | 0 | 0 | 0 | 0 | 0 | 0.4 | 0 | 0 | 0 | 0 | 0 | 0
COCCOc1ccc2c(c1)ncn2-c1ccc2cccc(N3CCC(N)CC3)c2n1 (max dose 10000 nM) | 0.387 | 0.187 | 0 | 0 | 6.7 | 0 | 0 | 0 | 0 | 0.177 | 0.143 | 0.126 | 0 | 0 | 1.16 | 0 | 0.637
CCn1cc(-c2cccc(C(F)(F)F)c2)c2sc(C(=N)NC3CCS(=O)(=O)CC3)cc2c1=O [I-BRD9] (max dose 10000 nM) | 0.818 | 0.0344 | 5.95 | 3.09 | 2.66 | 4.94 | 1.56 | 4.89 | 3.98 | 0 | 1.39 | 10.8 | 1.14 | 0.837 | 0 | 0 | 4.6
C=CC(=O)Nc1cccc(Nc2nc(Nc3ccc(OCCOC)cc3)ncc2F)c1 [Spebrutinib (CC-292, AVL-292)] (max dose 10000 nM) | 0 | 0.158 | 0 | 0 | 0 | 1.86 | 0 | 0.392 | 0 | 0.307 | 0 | 2.58 | 0 | 0 | 0 | 0 | 0

Complete entries from above. Values in the order: drug sensitivity score DSS3 [1]	drug sensitivity score DSS3 [2]	drug sensitivity score DSS3 [3]	drug sensitivity score DSS3 [4]	drug sensitivity score DSS3 [5]	drug sensitivity score DSS3 [6]	drug sensitivity score DSS3 [7]	drug sensitivity score DSS3 [8]	drug sensitivity score DSS3 [9]	drug sensitivity score DSS3 [10]	drug sensitivity score DSS3 [11]	drug sensitivity score DSS3 [12]	drug sensitivity score DSS3 [13]	drug sensitivity score DSS3 [14]	drug sensitivity score DSS3 [15]	drug sensitivity score DSS3 [16]	drug sensitivity score DSS3 [17]
`C=CCn1c(=O)c2cnc(Nc3ccc(N4CCN(C)CC4)cc3)nc2n1-c1cccc(C(C)(C)O)n1` [AZD1775, MK-1775] (max dose 10000 nM) is listed as 1.64	4.44	13.6	8.35	2.65	23.7	1.04	6.27	4.67	22	12.2	33.3	1.31	9.32	0	1.53	23
`CC[C@@]1(O)C(=O)OCc2c1cc1n(c2=O)Cc2cc3c(CN(C)C)c(O)ccc3nc2-1` [Topotecan HCl] (max dose 10000 nM) is listed as 23.8	5.23	24.5	7.66	1.94	39.4	15.4	13.4	17.4	37.7	26.5	38.6	3.61	4.47	3.27	10.3	15.6
